Hit rate of the full screen: of about 330,000 compounds, about 20 (0.006%) were called active. Inconclusive means that the source gave no clear call. Such entries were picked first, then a sample of the others. Calls follow the shape of the dose curve; as a rule, active = well fitted inhibition curve with a large enough effect; inconclusive = small, poorly fitted or top-dose-only effect, or effect the other way; inactive = flat fitted curve, though single readings scatter. A potency beside an inconclusive call is a rough fit, not a confirmed value.
target: Protein phosphatase EYA2 (Homo sapiens) (UniProt O00167); test: qHTS Assay for Inhibitors of the Phosphatase Activity of Eya2; details: recombinant Eya2, OMFP fluorescence dephosphorylation (OMFP is methylfluorescein phosphate); activity, negative = inhibition: at 76.9 µM (top of the series) unless noted
Outline: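 Eya2 protein (added as 0.2 uM solution) was preincubated with compound for 10 min at ambient temperature in 50 mM HEPES pH 7.5, 50 mM NaCl, 5 uM MgCl2, 0.05% BSA, 1 mM DTT. OMFP (added at 50 uM) then reacted 10 min; fluorescence read at 485/525 nm.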
% is scaled to controls: 0 for no effect and ±100 for the full control effect; potency is read from the fitted curve at half-maximal effect.

The chains behind the UniProt entries cited, without tags or fusion partners.
UniProt O00167, whole entry, looked up: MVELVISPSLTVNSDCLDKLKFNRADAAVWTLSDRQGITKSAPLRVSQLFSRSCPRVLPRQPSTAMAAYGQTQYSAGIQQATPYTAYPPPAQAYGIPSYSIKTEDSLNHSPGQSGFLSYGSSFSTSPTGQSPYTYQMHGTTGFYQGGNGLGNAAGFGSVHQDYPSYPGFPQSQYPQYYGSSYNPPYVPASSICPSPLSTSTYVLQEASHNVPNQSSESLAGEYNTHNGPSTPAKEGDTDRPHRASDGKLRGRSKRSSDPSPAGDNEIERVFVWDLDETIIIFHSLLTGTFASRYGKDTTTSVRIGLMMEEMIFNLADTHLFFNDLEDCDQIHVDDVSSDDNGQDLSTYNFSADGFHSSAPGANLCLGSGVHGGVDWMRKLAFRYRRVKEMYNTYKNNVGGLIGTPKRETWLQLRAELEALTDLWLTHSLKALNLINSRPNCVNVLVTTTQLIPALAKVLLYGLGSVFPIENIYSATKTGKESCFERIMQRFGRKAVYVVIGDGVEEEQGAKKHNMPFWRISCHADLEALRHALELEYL

Compound | Potency | activity, negative = inhibition
CNC(=S)N(Cc1ccc(OC)cc1)C1CC(=O)N(c2ccc(Cl)cc2)C1=O (stereo unspecified) | inconclusive: 20 µM [inhibitor, single point] | –
O=C1CCC/C(=N/NC(=O)c2sc3ccccc3c2Cl)C1 | – | inconclusive: 36.4% [activator]
CCCCNc1c(-c2ccc(OC)c(SC(C)CC)c2)nc2cc(C)ccn12 (stereo unspecified) | – | inactive: 23.1%
COc1ccc(N=Nc2nc3ccc(Br)cc3n2C)cc1 | inconclusive: 7.94 µM [activator, full curve] | –
Cc1[nH]c2ccccc2c1-c1csc(N)n1 | – | inactive: -0.23%
CCc1ccc(C(=O)COC(=O)c2ccc(-c3nnc(-c4ccccc4)o3)cc2)cc1 | inconclusive: 28.2 µM [inhibitor, partial curve, poor fit] | –
CCCS(=O)(=O)c1c(S(=O)(=O)CCC)c2cnccn2c1C(=O)c1ccc(OC)cc1 | inconclusive: 100 µM [inhibitor, single point] | –
CCOc1ccc(N(CC(=O)NC2CCCC2)C(=O)CCC(=O)Nc2nccs2)cc1 | inconclusive: 22.4 µM [inhibitor, single point] | –
CCCCNC(=O)CNC(=O)c1nn(-c2ccc(OC)cc2)c(=O)c2ccccc12 | inconclusive: 39.8 µM [inhibitor, partial curve, poor fit] | –
COc1ccccc1OCc1cc(C(=O)N2CCCC(OCc3cccnc3)C2)no1 (stereo unspecified) | – | inactive: -7.78%
NS(=O)(=O)c1ccc(O)c(NC(=O)c2ccc([N+](=O)[O-])o2)c1 | inconclusive: 89.1 µM [inhibitor, single point] | –
CCOc1cccc(CN2CCCC(N3CCc4ccccc4C3)C2)c1O (stereo unspecified) | inconclusive: 1580 µM [inhibitor, single point] | –
COc1ccc(Br)cc1/C=N/NC(=O)c1cc(Br)ccc1O | – | inactive: -7.53%
O=C(CC(CC(=O)c1ccccc1)C(=O)O)c1ccccc1 | – | inactive: 8.89%
Cc1cc(C)c2ccc(=S)[nH]c2n1 | inconclusive: 89.1 µM [inhibitor, single point] | –
CCCCC(=O)NC(c1ccccc1OC)c1ccc2cccnc2c1O (stereo unspecified) | – | inactive: 0.661%
Cc1nc(SCC(=O)Nc2ccc3c(c2)OCCO3)c2oc3ccccc3c2n1 | – | inactive: -5.26%
CC(=O)Nc1ccc(Nc2cc(C)nc3c(-c4ccccc4)cnn23)cc1 | – | inactive: -3.51%
Cc1ccc(C(=O)N/C(=C\c2sccc2C)C(=O)NCCCN2CCOCC2)cc1 | inconclusive: 17.8 µM [inhibitor, single point] | –
COc1ccc(OC)c(-n2c(C)cc(C=O)c2C)c1 | inconclusive: 89.1 µM [inhibitor, single point] | –
CC1Cc2ccccc2N1CC(=O)Nc1ccc(S(=O)(=O)N(C)C)cc1 (stereo unspecified) | inconclusive: 22.4 µM [inhibitor, partial curve, poor fit] | –

Reformatted with tabs: entries from further up.
Compound	Potency	activity, negative = inhibition
CCOc1cccc(CN2CCCC(N3CCc4ccccc4C3)C2)c1O (stereo unspecified)	inconclusive: 1580 µM [inhibitor, single point]	–
COc1ccc(Br)cc1/C=N/NC(=O)c1cc(Br)ccc1O	–	inactive: -7.53%
O=C(CC(CC(=O)c1ccccc1)C(=O)O)c1ccccc1	–	inactive: 8.89%
Cc1cc(C)c2ccc(=S)[nH]c2n1	inconclusive: 89.1 µM [inhibitor, single point]	–

Reference: PubChem BioAssay AID488837 (National Center for Advancing Translational Sciences (NCATS), 2010)
